Source: paper PMC6023872
These are yes or no findings as the source states them, for the method shown. In cells and extracts the contact can be indirect. Some results given as binding are weak or reduced against the parent protein; the word gives no strength.

Molecular target: CENP-A (UniProt O35216)
Assay: FRET or BRET; single-molecule FRET by sptPALM in mouse ES cells (fixed and live), donor mEos3.2 on one protein, acceptor JF646 on the other (through HaloTag or SNAP tag); read out as decreased donor intensity and longer track length (on-state time); 500 ms exposures, 5 mM Trolox; 5-fold excess of HaloTag-tagged CENP-A for CENP-A/CENP-A

- binding: binds
B1: CENP-A (protein, UniProt O35216 1-134)
chain: MGPRRKPQTPRRRPSSPAPGPSRQSSSVGSQTLRRRQKFMWLKEIKTLQKSTDLLFRKKPFSMVVREICEKFSRGVDFWWQAQALLALQEAAEAFLIHLFEDAYLLSLHAGRVTLFPKDIQLTRRIRGFEGGLP
modifications: JF646 HaloTag ligand on the HaloTag of the acceptor copy
